Source: patent US6110888A, “Substituted phenols as fragrance, flavor and antimicrobial compounds” (Takasago International Corporation, priority 1999, dated 2000)
Some results were stated once for a whole list of compounds, not compound by compound.

Tested on: gram negative organisms E. coli and P. aeruginosa
Test: Activity against gram negative organisms (summary)
Format: cell-based
Settings: in words

Compound	activity against the gram negative organisms
C=CCc1cc(C(C)(C)C)ccc1O [Example 5, Ortho Allyl Para tert-Butyl Phenol]	only slight activity against the gram negative organisms E. coli and P. aeruginosa
CCCc1cc(C(C)(C)C)ccc1O [Example 6, Ortho Propyl Para tert-Butyl Phenol]	only slight activity against the gram negative organisms E. coli and P. aeruginosa
